# Residue numbers refer to the chain shown, from its start. These are yes or no findings as the source states them, for the method shown.
# B1: clone 2 (17.022) scFv, yeast surface display clone (scFv)
# scFv: EIQLQQSGPELRRPGSSVKLSCKASGYNITDYLIHWVRHRPEHGLEWIGWIDPEDGETRYAQKFQSKATLTADTSSNAAYMQLSSLTPEDTATYFCARSLDSTWIYPFAYWGQGTLVTVSSGGGGSGGGGSGGGGSDIVMTQSPFSLAVSEGEMVTINCKSSQSLLRSGNQKNYLAWYQQKPGQSPKLLIYYASTGQSGVPDRFIGSGSGTDFTLTISDVQAEDLADYYCLQHYITPPTFGAGTKLELK
# B2: clone 1 (17.021) scFv, yeast surface display clone (scFv)
# scFv: B1 scFv with Y32N, W104Y, I235Q, T236S
# B3: clone 6 (17.035) scFv, yeast surface display clone (scFv)
# scFv: B1 scFv with W104Y, I105N, Y234W, T236S
# B4: clone 4 (17.023) scFv, yeast surface display clone (scFv)
# scFv: B1 scFv with S99Q, W104Y
# B5: clone 5 (17.030) scFv, yeast surface display clone (scFv)
# scFv: B1 scFv with W104Y, I105D, T236S
# Target: PD1
# Experiment: yeast surface display flow cytometry, clone labelled with a mixture of 500 nM soluble TNFR2, 500 nM OX40 and 500 nM PD1; one bar for the whole mixture
row,binding,Binder
1,no binding (tested: 500 nM),B1
2,no binding (tested: 500 nM),B2
3,no binding (tested: 500 nM),B3
4,no binding (tested: 500 nM),B4
5,no binding (tested: 500 nM),B5

# Target: soluble TNFR2
# Experiment: as above
row,binding,Binder
1,no binding (tested: 500 nM),B1
2,no binding (tested: 500 nM),B2
3,no binding (tested: 500 nM),B3
4,no binding (tested: 500 nM),B4
5,no binding (tested: 500 nM),B5

# Target: OX40
# Experiment: as above
row,binding,Binder
1,no binding (tested: 500 nM),B1
2,no binding (tested: 500 nM),B2
3,no binding (tested: 500 nM),B3
4,no binding (tested: 500 nM),B4
5,no binding (tested: 500 nM),B5

# Target: PD1
# Experiment: yeast surface display, flow cytometry, mixture of 500 nM soluble TNFR2, 500 nM OX40 and 500 nM PD1
row,binding,Binder
1,no binding (tested: 500 nM),B1
2,no binding (tested: 500 nM),B2
3,no binding (tested: 500 nM),B3
4,no binding (tested: 500 nM),B4
5,no binding (tested: 500 nM),B5

# Target: soluble TNFR2
# Experiment: as above
row,binding,Binder
1,no binding (tested: 500 nM),B1
2,no binding (tested: 500 nM),B2
3,no binding (tested: 500 nM),B3
4,no binding (tested: 500 nM),B4
5,no binding (tested: 500 nM),B5

# Target: OX40
# Experiment: as above
row,binding,Binder
1,no binding (tested: 500 nM),B1
2,no binding (tested: 500 nM),B2
3,no binding (tested: 500 nM),B3
4,no binding (tested: 500 nM),B4
5,no binding (tested: 500 nM),B5

# — patent publication US20240092888A1 (AULOS BIOSCIENCE, published 2024)
